Source: patent US6930093B2, “Use of ribofuranose derivatives against inflammatory bowel diseases” (Valeant Research & Development, priority 2003, dated 2005)

Tested on: DNBS induced distal colitis in Wistar rats
Assay: DNBS (2,4 dinitrobenzenesulfonic acid) induced distal colitis in Wistar rats as a model for inflammatory bowel disease
Format: in vivo, Wistar derived female rats
Details: ribavirin 100 mg/kg × 7 or sulfasalazine 300 mg/kg × 7 p.o.
Method: Wistar derived female rats were provided by MDS Pharma Services Taiwan Ltd. and housed in APEC^R cages. All animals were maintained in a controlled temperature (22° C.-24° C.) and humidity (60-80%) environment with 12 hours light dark cycles for at least one week in the laboratory prior to use. Free access to standard lab chow (LabDiet, Rodent Diet, PMI Nutrition International, USA) and tap water was granted. All aspects of the work including housing, experimentation and disposal of animals were performed in general accordance with the International Guiding Principles for Biomedical Research Involving Animals (CIOMSI Publication No. ISBN 9290360194, 1985).
[…] (TCI, Japan), absolute ethanol (Merck, Germany), sodium chloride (Wako, Japan), sulfasalazine (Sigma, USA) and Tween 80 (Wako, Japan).
Groups of 3 Wistar derived female rats weighing 180±20 grams and fasted for 24 hours were used. Distal colitis was induced by intra-colonic instillation of 2,4-ninitrobenzene sulfonic acid (DNBS; 30 mg in 0.5 mL ethanol 30%), which was followed by injection of air (2 mL) through a cannula to ensure that the solution remained in the colon. […] Two control groups were similarly treated with vehicle alone while challenged with either DNBS (vehicle-control) or 0.9% NaCl solution (blank-control). The animals were sacrificed 24 hours after the final dosing of test compound and each colon was removed and weighed. During the experiment, the presence of diarrhea was recorded daily. Furthermore, when the abdominal cavity was opened, adhesions between the colon and other organs were first noted; presence of colonic ulceration was evaluated after removal and weighing of each colon. The colon-to-body weight (BW) ratio was then calculated for each animal according to the formula: Colon [(g)/BW(g)]×100%. The “Net” increase in the ratio of vehicle-control+DNBS group relative to vehicle-control group was used as a base for comparison with test substance treated groups and expressed as percent decrease. A 30% or more (≧30%) reduction in colon-to-body weight ratio, relative to the vehicle-treated control group, is considered significant.

[1] = individual animals (N 1-3), DNBS-challenged rats

| SMILES | B.W. (g) Day 1 (group Avg of 3 rats) [g] | B.W. (g) Day 1 [1] |
| --- | --- | --- |
| O=C(O)c1cc(/N=N/c2ccc(S(=O)(=O)Nc3ccccn3)cc2)ccc1O [Sulfasalazine, sulfasalazine] | 183 | 185 g (2×) and 180 g |
| NC(=O)c1ncn([C@@H]2O[C@H](CO)[C@@H](O)[C@H]2O)n1 [Ribavirin, 1-β-D-ribofuranosyl-1H-1,2,4-triazole-3-carboxamide] | 183 | 180 g (2×) and 190 g |

Where “and” joins values, the source holds several entries; their conditions need not be identical. Identical values can stand only once.
